Source: paper PMC12635394, “UBE2O-mediated ubiquitylation directs cytoplasmic CTNNA1 to promote cell-to-ECM adhesions” (EMBO Reports, 2025)
Results are given in words; binding and its absence hold for the method and conditions named. In cells and extracts the contact can be indirect. Some binding calls cover weakened binding; strength is not graded here.

Chains of the proteins cited; added tags and fusions are not shown.
UniProt P26231: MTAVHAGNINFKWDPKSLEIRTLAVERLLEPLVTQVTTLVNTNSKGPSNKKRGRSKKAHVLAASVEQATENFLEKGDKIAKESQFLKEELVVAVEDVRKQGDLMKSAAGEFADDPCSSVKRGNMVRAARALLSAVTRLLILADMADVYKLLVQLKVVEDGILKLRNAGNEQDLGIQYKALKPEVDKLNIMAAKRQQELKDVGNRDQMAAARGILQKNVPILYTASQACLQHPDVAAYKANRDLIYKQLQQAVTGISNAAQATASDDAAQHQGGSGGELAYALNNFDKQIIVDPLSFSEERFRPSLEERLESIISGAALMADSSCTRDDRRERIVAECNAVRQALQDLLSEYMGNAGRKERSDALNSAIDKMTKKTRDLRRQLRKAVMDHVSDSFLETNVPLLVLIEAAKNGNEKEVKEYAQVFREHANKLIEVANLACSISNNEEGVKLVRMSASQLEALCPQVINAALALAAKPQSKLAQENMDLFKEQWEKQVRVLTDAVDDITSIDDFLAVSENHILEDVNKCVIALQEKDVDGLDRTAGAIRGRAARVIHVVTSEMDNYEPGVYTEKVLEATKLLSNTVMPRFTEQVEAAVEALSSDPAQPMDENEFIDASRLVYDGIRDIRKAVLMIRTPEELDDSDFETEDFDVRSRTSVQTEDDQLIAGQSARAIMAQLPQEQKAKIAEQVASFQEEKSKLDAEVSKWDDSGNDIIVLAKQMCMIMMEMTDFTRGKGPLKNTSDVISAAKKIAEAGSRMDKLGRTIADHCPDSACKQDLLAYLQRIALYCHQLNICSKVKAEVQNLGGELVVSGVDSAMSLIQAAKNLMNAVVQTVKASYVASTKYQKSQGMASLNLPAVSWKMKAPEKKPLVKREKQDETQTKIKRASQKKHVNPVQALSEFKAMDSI
UniProt P35221: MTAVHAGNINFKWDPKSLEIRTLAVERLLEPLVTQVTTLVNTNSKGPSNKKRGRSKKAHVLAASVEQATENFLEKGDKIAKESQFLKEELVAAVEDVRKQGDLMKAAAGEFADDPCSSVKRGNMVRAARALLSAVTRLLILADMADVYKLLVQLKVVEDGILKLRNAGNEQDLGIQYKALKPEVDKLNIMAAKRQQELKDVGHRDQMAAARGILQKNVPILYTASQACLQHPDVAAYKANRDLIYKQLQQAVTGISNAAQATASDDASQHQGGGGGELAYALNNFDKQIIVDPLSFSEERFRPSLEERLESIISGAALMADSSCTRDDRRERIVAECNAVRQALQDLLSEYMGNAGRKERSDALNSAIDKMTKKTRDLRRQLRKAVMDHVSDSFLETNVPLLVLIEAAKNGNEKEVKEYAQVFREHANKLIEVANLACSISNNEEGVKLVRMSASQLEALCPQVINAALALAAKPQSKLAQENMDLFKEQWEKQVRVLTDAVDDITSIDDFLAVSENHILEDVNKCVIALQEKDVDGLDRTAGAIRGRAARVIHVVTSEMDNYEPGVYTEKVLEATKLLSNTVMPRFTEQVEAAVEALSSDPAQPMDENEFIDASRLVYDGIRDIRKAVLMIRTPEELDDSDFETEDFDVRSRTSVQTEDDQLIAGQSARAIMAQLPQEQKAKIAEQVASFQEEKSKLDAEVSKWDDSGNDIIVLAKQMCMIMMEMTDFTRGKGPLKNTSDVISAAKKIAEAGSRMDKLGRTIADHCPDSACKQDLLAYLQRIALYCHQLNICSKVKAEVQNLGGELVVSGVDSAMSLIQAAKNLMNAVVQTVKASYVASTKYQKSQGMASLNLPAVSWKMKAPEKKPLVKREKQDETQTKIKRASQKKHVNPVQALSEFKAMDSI

What was measured:
[1] = target: T1, endogenous UBE2O of mouse embryonic fibroblasts (mouse (endogenous in MEFs)) (UniProt Q6ZPJ3); assay: co-IP; endogenous proteins; MEF or HaCaT lysates incubated with rabbit anti-UBE2O or rabbit IgG overnight at 4 °C, Protein A/G magnetic beads, immunoblot
T1 sequence: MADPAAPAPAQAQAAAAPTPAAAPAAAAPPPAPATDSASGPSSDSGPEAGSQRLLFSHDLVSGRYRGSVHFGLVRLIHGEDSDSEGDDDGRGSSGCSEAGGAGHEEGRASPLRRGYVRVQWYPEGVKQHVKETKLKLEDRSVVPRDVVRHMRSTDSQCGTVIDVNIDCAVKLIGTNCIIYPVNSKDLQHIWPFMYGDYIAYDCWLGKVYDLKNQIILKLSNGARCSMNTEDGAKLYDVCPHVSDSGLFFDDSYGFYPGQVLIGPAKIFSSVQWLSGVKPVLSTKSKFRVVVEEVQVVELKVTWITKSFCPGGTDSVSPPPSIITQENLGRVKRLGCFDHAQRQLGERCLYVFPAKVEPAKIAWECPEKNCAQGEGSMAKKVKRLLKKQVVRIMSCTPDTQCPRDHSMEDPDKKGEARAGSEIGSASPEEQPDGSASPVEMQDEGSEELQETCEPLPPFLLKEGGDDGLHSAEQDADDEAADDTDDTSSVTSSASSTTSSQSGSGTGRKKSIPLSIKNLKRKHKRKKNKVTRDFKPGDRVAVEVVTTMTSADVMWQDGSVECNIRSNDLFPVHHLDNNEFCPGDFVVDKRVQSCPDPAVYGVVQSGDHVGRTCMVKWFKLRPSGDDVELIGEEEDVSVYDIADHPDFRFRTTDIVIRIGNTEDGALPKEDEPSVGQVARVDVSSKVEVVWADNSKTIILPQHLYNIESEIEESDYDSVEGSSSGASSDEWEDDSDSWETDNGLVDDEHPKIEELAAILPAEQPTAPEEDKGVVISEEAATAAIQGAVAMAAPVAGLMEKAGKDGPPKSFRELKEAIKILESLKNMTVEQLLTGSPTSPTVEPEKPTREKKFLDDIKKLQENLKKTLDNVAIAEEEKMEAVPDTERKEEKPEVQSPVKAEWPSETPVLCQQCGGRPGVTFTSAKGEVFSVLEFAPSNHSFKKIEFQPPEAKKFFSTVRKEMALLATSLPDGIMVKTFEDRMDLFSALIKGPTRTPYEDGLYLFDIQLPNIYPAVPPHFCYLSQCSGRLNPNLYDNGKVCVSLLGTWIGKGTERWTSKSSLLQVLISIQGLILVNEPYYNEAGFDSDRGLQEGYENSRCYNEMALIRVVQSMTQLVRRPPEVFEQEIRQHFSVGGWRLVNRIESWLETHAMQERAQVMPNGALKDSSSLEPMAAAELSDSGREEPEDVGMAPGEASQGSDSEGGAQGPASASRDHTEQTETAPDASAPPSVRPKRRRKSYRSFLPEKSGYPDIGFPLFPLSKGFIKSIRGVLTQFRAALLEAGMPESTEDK

[2] = target: T2, endogenous human UBE2O (human (endogenous in HEK293T and HaCaT)) (UniProt Q9C0C9); assay: as above
T2 sequence: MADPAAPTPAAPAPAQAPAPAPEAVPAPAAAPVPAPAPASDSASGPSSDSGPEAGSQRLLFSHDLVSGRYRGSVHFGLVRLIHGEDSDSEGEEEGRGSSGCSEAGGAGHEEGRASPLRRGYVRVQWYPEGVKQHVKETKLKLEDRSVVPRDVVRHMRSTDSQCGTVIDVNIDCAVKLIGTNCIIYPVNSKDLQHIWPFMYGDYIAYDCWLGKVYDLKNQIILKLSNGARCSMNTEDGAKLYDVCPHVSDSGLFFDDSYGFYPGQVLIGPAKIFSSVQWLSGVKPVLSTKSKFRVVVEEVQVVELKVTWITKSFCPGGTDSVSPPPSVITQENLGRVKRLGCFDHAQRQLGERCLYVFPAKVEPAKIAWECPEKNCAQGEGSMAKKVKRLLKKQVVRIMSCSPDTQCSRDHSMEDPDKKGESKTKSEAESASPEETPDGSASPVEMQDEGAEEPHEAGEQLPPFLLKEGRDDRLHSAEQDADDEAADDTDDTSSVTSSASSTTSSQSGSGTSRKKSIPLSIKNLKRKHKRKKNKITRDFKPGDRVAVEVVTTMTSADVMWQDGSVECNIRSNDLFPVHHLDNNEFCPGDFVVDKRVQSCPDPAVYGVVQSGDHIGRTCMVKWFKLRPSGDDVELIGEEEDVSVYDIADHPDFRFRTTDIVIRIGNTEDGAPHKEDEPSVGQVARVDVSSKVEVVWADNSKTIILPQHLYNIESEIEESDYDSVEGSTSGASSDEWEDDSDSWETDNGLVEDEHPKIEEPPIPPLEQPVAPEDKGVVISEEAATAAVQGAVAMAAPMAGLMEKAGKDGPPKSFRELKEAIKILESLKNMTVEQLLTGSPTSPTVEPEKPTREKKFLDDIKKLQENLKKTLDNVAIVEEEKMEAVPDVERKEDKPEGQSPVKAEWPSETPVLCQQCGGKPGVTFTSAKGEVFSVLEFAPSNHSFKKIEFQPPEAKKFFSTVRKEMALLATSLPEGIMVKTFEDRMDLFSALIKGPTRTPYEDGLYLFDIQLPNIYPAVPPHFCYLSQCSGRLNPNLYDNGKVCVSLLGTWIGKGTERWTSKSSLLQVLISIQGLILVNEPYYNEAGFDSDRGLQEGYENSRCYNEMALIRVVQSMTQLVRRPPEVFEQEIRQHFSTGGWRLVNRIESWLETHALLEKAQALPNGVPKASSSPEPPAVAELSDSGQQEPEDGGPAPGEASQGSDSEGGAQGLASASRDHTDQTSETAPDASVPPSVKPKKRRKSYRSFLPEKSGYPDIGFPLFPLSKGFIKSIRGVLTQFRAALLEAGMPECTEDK

| binding [1] | binding [2] | Substance |
| --- | --- | --- |
| binds |  | endogenous CTNNA1 of mouse embryonic fibroblasts (from UniProt P26231 1-906) |
|  | binds | endogenous CTNNA1 of HaCaT cells (from UniProt P35221 1-906) |
